Experiments:
Type in all cases: cell-based
[1] = tested on: Human fibroblasts; settings: amount of peptide at peak activity
[2] = tested on: NIH/3T3 cells; settings: amount of peptide at peak activity
Method: Two versions of the Tat peptide were synthesized: one with the DNA-binding group carboxyspermine on the N-terminus and one without. The core TAT sequence employed was […] [SEQ ID NO:123]. The ability of the TAT peptide and the carboxyspermine-modified TAT peptide to enhance cationic lipid-mediated transfection was tested.
Transfection was performed in NIH/3T3 cells, in 24-well plates. Seeding density was 6×10^4 cells/well. For each condition, the standard PLUS protocol was used (see example 3) for complexing. All complexes were prepared in OptiMEM reduced serum media. Cells were harvested and assayed for β-galactosidase acivity in the soluble extracts by luminescent assay (see example 8). […] A clear enhancement is seen.

[3] = tested on: Human fibroblasts

Substance: CGYGPKKKRKVGGGGRGDSPCG [G61934P NLSRGD]
- Peptide Amount (mg per 0.4 mg DNA) [1]: 20 mg per 0.4 mg DNA

Substance: CGYGRKKRRQRRRG [TAT]
- Peak peptide [2]: 2.0 µg

Substance: GRGDSPCGGK16 (SSDDEATADSQHSTPPKKKRKVGG) [RGDK16]
- Peptide Amount (mg per 0.4 mg DNA) [1]: 5 mg per 0.4 mg DNA

Substance: GYGPKKKRKVGG [NLS, nuclear localization signal of SV40 large T antigen]
- Peptide Amount (mg per 0.4 mg DNA) [1]: 20 mg per 0.4 mg DNA

Substance: K16 (KKKKKKKKKKKKKKKKKKKK)
- Peptide Amount (mg per 0.4 mg DNA) [1]: 0.5 mg per 0.4 mg DNA

Substance: K16CGYGPKKKRKVGGGGRGDSP (KKKKKKKKKKKKKKKKGGCGYGPKKKRKVGGKFTIVF) [K16NLSRGD]
- Peptide Amount (mg per 0.4 mg DNA) [1]: 2 mg per 0.4 mg DNA

Substance: K16GGCGYGPKKKRKVGG [K16NLS (peak 1)] (KKKKKKKKKKKKKKKKKFTTIVFCGYGPKKKRKVGG)
- Peptide Amount (mg per 0.4 mg DNA) [1]: 10 mg per 0.4 mg DNA

Substance: K16GGCGYGPKKKRKVGG [K16NLS (peak 2)]
- Peptide Amount (mg per 0.4 mg DNA) [1]: 0.5 mg per 0.4 mg DNA

Substance: K16GGRGDSPCG [K16RGD]
- Peptide Amount (mg per 0.4 mg DNA) [1]: 2 mg per 0.4 mg DNA

Substance: Sp-5-CO-GCGYGPKKKRKVG [Opf-GG-2-CYS (peak 1)] (GLFEAIAEFIEGGWEGLIEGGGYGGGGGGPKKKRKVGG; N-terminal spermine conjugate)
- Peptide Amount (mg per 0.4 mg DNA) [1]: 10 mg per 0.4 mg DNA

Substance: Sp-5-CO-GCGYGPKKKRKVG [Opf-GG-2-CYS (peak 2)] (N-terminal spermine conjugate)
- Peptide Amount (mg per 0.4 mg DNA) [1]: 20 mg per 0.4 mg DNA

Substance: Sp-5-CO-GGGGGYGPKKKRKVGG [Opf-GG-1]
- Peptide Amount (mg per 0.4 mg DNA) [1]: 6 mg per 0.4 mg DNA

Substance: Sp-5-CO-GGYGPKKKRKVG [Opf-GG-2 (peak 1)]
- Peptide Amount (mg per 0.4 mg DNA) [1]: 10 mg per 0.4 mg DNA

Substance: Sp-5-CO-GGYGPKKKRKVG [Opf-GG-2 (peak 2)]
- Peptide Amount (mg per 0.4 mg DNA) [1]: 2 mg per 0.4 mg DNA

Substance: Sp-5-CO-GGYGPKKKRKVGGGGYGPKKKRKVGG (N-terminal spermine conjugate (Sp-5-CO)) [Sp-NLSNLS, the peptide NLSNLS conjugated to spermine]
- Peptide Amount (mg per 0.4 mg DNA) [1]: 4 mg per 0.4 mg DNA
- Sp-NLSNLS amount resulting in a plateau of enhanced activity [3]: 2 to 20 µg

Substance: Sp-5-CO-GYGPKKKRKVGGGGGRGDMFGG [SpNLSRGD]
- Peptide Amount (mg per 0.4 mg DNA) [1]: 20 mg per 0.4 mg DNA

Substance: sp-TAT: Tat peptide CGYGRKKRRQRRRG with the DNA-binding group carboxyspermine on the N-terminus (N-terminal carboxyspermine)
- Peak peptide [2]: 0.5 µg

Reference: patent US8058068B2, “Peptide-enhanced transfections” (Life Technologies Corporation, priority 1995, dated 2011)
